Experimental data from publication PMC5159797.
These are yes or no findings as the source states them, for the method shown. Binding seen in cells or lysates may run through a third protein. Binding can be weak; no strength is given. Sequences can lack the tags named with a protein.

Target: T1, GST-SKAP (UniProt Q9Y448)
T1 sequence: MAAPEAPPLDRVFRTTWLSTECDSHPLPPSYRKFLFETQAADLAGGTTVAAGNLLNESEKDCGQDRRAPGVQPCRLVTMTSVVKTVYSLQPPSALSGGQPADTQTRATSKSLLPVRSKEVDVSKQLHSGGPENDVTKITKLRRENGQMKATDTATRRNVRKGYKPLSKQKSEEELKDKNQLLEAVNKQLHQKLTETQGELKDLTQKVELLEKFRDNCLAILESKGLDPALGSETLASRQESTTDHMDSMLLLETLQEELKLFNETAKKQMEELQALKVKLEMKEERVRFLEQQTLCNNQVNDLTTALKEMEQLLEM
Assay: pull-down; GST fusion protein-bound sepharose beads incubated 2 h at 4 °C with HEK293T cell lysates containing GFP-tagged proteins; PBS, 0.1% Triton X-100; anti-GFP blot; only the target purified

Substance | binding
GFP-Kif2b C-terminus (deletion mutant) (human) (domain or fragment) | binds
GFP-Kif2b N-terminus (deletion mutant) (human) (domain or fragment) | binds
